# Test results published in patent US11666558B2, “Methods of treating intraocular pressure with activators of Tie-2” (EyePoint Pharmaceuticals, Inc., priority 2015, dated 2023).
# Several values for one entry are separate records, joined by “and”; a condition that tells them apart may be missing. Equal entries are not always repeated. The source gives many values for each of these; only a part stands here.
# Test: Ocular tissue concentrations (aqueous humor, vitreous humor, iris, retina, choroid, cornea) after topical ocular, subcutaneous and intravitreal administration
# Type: in vivo, New Zealand White rabbits
# Details: for Avg.: average; for Choroid Conc. (ng/mL) OS / Choroid Conc. (ng/mL) OD: TABLE 16: Choroid homogenate; for Choroid Conc. (ng/g) OS / Choroid Conc. (ng/g) OD: TABLE 16: Choroid; for Iris Conc. (ng/mL) OS / Iris Conc. (ng/mL) OD: TABLE 16: Iris homogenate; for Iris Conc. (ng/g) OS / Iris Conc. (ng/g) OD: TABLE 16: Iris
# Method: To measure the concentration of Compound 1 in plasma and ocular tissues following topical ocular, subcutaneous, and intravitreal administration, New Zealand White rabbits were administered Compound 1, and plasma and ocular samples were collected at pre-determined time points. Compound 1 formulations were prepared fresh on each day of dosing.
# Ocular tissue samples from both eyes of each animal were collected and weights were recorded. Plasma and ocular tissue sample concentrations of Compound 1 were determined by LC-MS/MS.
# New Zealand White rabbits weighing 2.5 to 3.5 kg were used on this study. Rabbits were housed one per cage. Animals were not fasted and only healthy animals with no ocular illness were used. Two rabbits per group were sacrificed at each of four ocular tissue sampling time points for a total of eight rabbits per group.
# Animals were anesthetized for ocular (topical) and intravitreal dosing following the 12IA7 IACUC protocol. Each rabbit received a bolus dose of test formulation either via topical ocular administration 3 times daily on Days 1 and 2 (at 0, 6, and 12 hours), and once on Day 3 (at 0 hours) into both eyes; via intravitreal administration into both eyes once on Day 1 (at 0 hours); or via subcutaneous administration 2 times daily on Days 1 and 2 (at 0 and 8 hours) and once daily on Day 3 (at 0 hours). Doses were given within an approximately 1 hour window each day where applicable.
# On Day 1, for intravitreal administration, or on Day 3, for topical ocular and subcutaneous administration, at the appropriate ocular tissue collection time points, animals were euthanized and both eyes were enucleated immediately. Following enucleation, each eye was rinsed with phosphate-buffered saline. Ocular tissue samples from both eyes of each animal were collected at predetermined time points and weights were recorded. All the samples were frozen immediately on dry ice, and stored at −60° C. to −80° C. pending bioanalysis.
# An LC-MS/MS method was developed for the determination of Compound 1 in rabbit aqueous tissues (plasma, aqueous and vitreous humor) and solid ocular tissue samples. A pre-study standard curve was analyzed to determine the specificity, range, and lower limit of quantitation of the method. Plasma and tissue homogenate study samples were extracted and analyzed. All the samples were treated identically to the standards.
# One eight-point standard curve was used in each analytical batch. To be accepted, each batch must have had at least five of eight standards with accuracy within ±20% of nominal, except at the lower limit of quantification (LLOQ), where ±25% was acceptable.
# Concentration versus time data is plotted in FIGS. 3-16. All data are expressed as ng/g of the free drug. Samples that were below the limit of quantitation (0.2 ng/mL) were not used in the calculation of averages.
# [1] = 0.5 hr, OS, free acid, subcutaneous 5 mg/kg/dose, Group 3
# [2] = 1 hr, OD, free acid, subcutaneous 5 mg/kg/dose, Group 3
# [3] = 1 hr, OS, free acid, subcutaneous 5 mg/kg/dose, Group 3
# [4] = 2 hr, OD, free acid, subcutaneous 5 mg/kg/dose, Group 3
# [5] = 2 hr, OS, free acid, subcutaneous 5 mg/kg/dose, Group 3
# [6] = 4 hr, OD, free acid, subcutaneous 5 mg/kg/dose, Group 3
# [7] = 4 hr, OS, free acid, subcutaneous 5 mg/kg/dose, Group 3
compound,measurement,setting,value
COC(=O)N[C@@H](Cc1ccccc1)C(=O)N[C@@H](Cc1ccc(NS(=O)(=O)O)cc1)c1csc(-c2cccs2)n1 [Compound 1],Conc. (ng/mL) OS,"Retina homogenate, 72 hr, left eye, intravitreal 2.5 mg/eye (group 5), individual animals",12900 ng/mL
same,Conc. (ng/mL) OD,"Retina homogenate, 72 hr, right eye, intravitreal 2.5 mg/eye (group 5), individual animals",6070 ng/mL
same,Retina Conc. (ng/g) OD,"Retina, 0.5 hr, OD, sodium salt, subcutaneous 5 mg/kg/dose, Group 2",34.9 ng/g
same,Retina Conc. (ng/g) OS,"Retina, 0.5 hr, OS, sodium salt, subcutaneous 5 mg/kg/dose, Group 2",48.7 ng/g
same,Retina Conc. (ng/g) OD,"Retina, 1 hr, OD, sodium salt, subcutaneous 5 mg/kg/dose, Group 2",18.3 ng/g
same,Retina Conc. (ng/g) OS,"Retina, 1 hr, OS, free acid, subcutaneous 5 mg/kg/dose, Group 3",13.3 ng/g
same,Retina Conc. (ng/g) OS,"Retina, 1 hr, OS, sodium salt, subcutaneous 5 mg/kg/dose, Group 2",46.4 ng/g
same,Avg.,"Retina, 6.0 hr, intravitreal 2.5 mg/eye (group 5)",1988250 ng/g
same,Conc. (ng/g) OS,"Retina, 6.0 hr, left eye, intravitreal 2.5 mg/eye (group 5), individual animals",1694000 ng/g and 1320000 ng/g
same,Conc. (ng/g) OD,"Retina, 6.0 hr, right eye, intravitreal 2.5 mg/eye (group 5), individual animals",1606000 ng/g
same,Retina Conc. (ng/g) OD,"Retina, 24 hr, OD, sodium salt, intravitreal 2.5 mg/eye, Group 4",387200 ng/g
same,Retina Conc. (ng/g) OS,"Retina, 24 hr, OS, sodium salt, intravitreal 2.5 mg/eye, Group 4",407000 ng/g
same,Avg.,"Retina, 24 hr, intravitreal 2.5 mg/eye (group 5)",1572725 ng/g
same,Conc. (ng/g) OS,"Retina, 24 hr, left eye, intravitreal 2.5 mg/eye (group 5), individual animals",1087900 ng/g and 2178000 ng/g
same,Conc. (ng/g) OD,"Retina, 24 hr, right eye, intravitreal 2.5 mg/eye (group 5), individual animals",1430000 ng/g and 1595000 ng/g
same,Retina Conc. (ng/g) OD,"Retina, 48 hr, OD, sodium salt, intravitreal 2.5 mg/eye, Group 4",80960 ng/g
same,Retina Conc. (ng/g) OS,"Retina, 48 hr, OS, sodium salt, intravitreal 2.5 mg/eye, Group 4",71830 ng/g
same,Conc. (ng/g) OS,"Retina, 48 hr, left eye, intravitreal 2.5 mg/eye (group 5), individual animals",1111000 ng/g
same,Conc. (ng/g) OD,"Retina, 48 hr, right eye, intravitreal 2.5 mg/eye (group 5), individual animals",720500 ng/g
same,Retina Conc. (ng/g) OD,"Retina, 72 hr, OD, sodium salt, intravitreal 2.5 mg/eye, Group 4",6578 ng/g
same,Retina Conc. (ng/g) OS,"Retina, 72 hr, OS, sodium salt, intravitreal 2.5 mg/eye, Group 4",5324 ng/g
same,Conc. (ng/g) OS,"Retina, 72 hr, left eye, intravitreal 2.5 mg/eye (group 5), individual animals",141900 ng/g
same,Conc. (ng/g) OD,"Retina, 72 hr, right eye, intravitreal 2.5 mg/eye (group 5), individual animals",66770 ng/g
same,Choroid Conc. (ng/mL) OS,[1],14.0 ng/mL
same,Choroid Conc. (ng/mL) OD,[2],8.65 ng/mL
same,Choroid Conc. (ng/mL) OS,[3],7.60 ng/mL
same,Choroid Conc. (ng/mL) OD,[4],4.26 ng/mL
same,Choroid Conc. (ng/mL) OS,[5],4.94 ng/mL
same,Choroid Conc. (ng/mL) OD,[6],4.65 ng/mL
same,Choroid Conc. (ng/g) OS,[1],154 ng/g
same,Choroid Conc. (ng/g) OD,[2],95.2 ng/g
same,Choroid Conc. (ng/g) OS,[3],83.6 ng/g
same,Choroid Conc. (ng/g) OD,[4],46.9 ng/g
same,Choroid Conc. (ng/g) OS,[5],54.3 ng/g
same,Choroid Conc. (ng/g) OD,[6],51.2 ng/g
same,Cornea Conc. (ng/mL) OD,"TABLE 16: Cornea homogenate, 4 hr, OD, free acid, subcutaneous 5 mg/kg/dose, Group 3",0.847 ng/mL
same,Cornea Conc. (ng/g) OD,"TABLE 16: Cornea, 4 hr, OD, free acid, subcutaneous 5 mg/kg/dose, Group 3",9.32 ng/g
same,Iris Conc. (ng/mL) OS,[1],3.54 ng/mL
same,Iris Conc. (ng/mL) OS,[3],3.12 ng/mL
same,Iris Conc. (ng/mL) OD,[4],2.91 ng/mL
same,Iris Conc. (ng/mL) OS,[5],1.67 ng/mL
same,Iris Conc. (ng/mL) OD,[6],1.63 ng/mL
same,Iris Conc. (ng/mL) OS,[7],0.794 ng/mL
same,Iris Conc. (ng/g) OS,[1],38.9 ng/g
same,Iris Conc. (ng/g) OS,[3],34.3 ng/g
same,Iris Conc. (ng/g) OD,[4],32.0 ng/g
same,Iris Conc. (ng/g) OD,[6],17.9 ng/g
same,Iris Conc. (ng/g) OS,[7],8.73 ng/g
same,Retina Conc. (ng/mL) OS,"TABLE 16: Retina homogenate, 1 hr, OS, free acid, subcutaneous 5 mg/kg/dose, Group 3",1.21 ng/mL
same,Retina Conc. (ng/g) OS,"TABLE 16: Retina, 1 hr, OS, free acid, subcutaneous 5 mg/kg/dose, Group 3",13.3 ng/g
